Experimental data taken from patent US20190040155A1 (AFFIMED, published 2019).
These are yes or no findings as the source states them, for the method shown. Some results given as binding are weak or reduced against the parent protein; the word gives no strength.

How the values were obtained:
[1] = molecular target: T1, CD30 (UniProt P28908 19-595, limits assumed); test: flow cytometry on KARPAS-299 cells, anti-His detection
T1 construct: whole, on cells; also called CD30 on CD19-/CD30+ KARPAS-299 cells
T1 sequence (looked up): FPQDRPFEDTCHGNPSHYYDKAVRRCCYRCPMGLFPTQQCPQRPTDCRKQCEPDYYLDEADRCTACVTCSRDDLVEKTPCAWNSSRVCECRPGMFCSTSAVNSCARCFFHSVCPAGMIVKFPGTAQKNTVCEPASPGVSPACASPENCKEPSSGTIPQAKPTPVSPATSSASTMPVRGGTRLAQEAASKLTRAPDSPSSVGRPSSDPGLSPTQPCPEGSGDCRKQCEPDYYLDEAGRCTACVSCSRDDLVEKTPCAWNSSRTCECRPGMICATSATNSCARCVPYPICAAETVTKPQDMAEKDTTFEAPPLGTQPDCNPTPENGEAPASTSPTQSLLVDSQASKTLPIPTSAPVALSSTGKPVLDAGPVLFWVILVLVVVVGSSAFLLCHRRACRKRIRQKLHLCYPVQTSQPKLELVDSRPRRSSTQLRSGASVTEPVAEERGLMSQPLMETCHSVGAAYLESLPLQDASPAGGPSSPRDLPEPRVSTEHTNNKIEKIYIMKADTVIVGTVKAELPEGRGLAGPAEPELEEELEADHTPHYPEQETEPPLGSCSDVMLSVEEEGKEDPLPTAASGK
Description: (§1) Single-positive CD19+/CD30− Raji and CD19-/CD30+ KARPAS-299 cells as well as double-positive CD19+/CD30+ MEC-1 were stained with serial dilutions of the trispecific antibody molecules and cell surface bound antibodies were detected by mAb anti-His followed by FITC-conjugated goat anti-mouse IgG. Mean fluorescence intensities determined by flow cytometry were used to calculate KD values by non-linear regression. KD values for trispecific antibody molecules were determined in two independent experiments. […]
(§2) After repeated washing with FACS buffer, cell-bound antibodies were detected with 10 μg/mL anti-His mAb 13/45/31-2 (Dianova, Hamburg, Germany, cat.: DIA910-1MG) followed by 15 μg/mL FITC-conjugated goat anti-mouse antibody (Dianova, cat.: 115-095-062). […] The fluorescence of 2-5×10³ living cells was measured using a Beckman-Coulter FC500 MPL flow cytometer using the MXP software (Beckman-Coulter, Krefeld, Germany) or a Millipore Guava EasyCyte flow cytometer (Merck Millipore, Schwalbach, Germany). Mean fluorescence intensities of the cell samples were calculated using CXP software (Beckman-Coulter) or Incyte software (Merck Millipore, Schwalbach, Germany). […]

[2] = molecular target: T1, CD30; test: flow cytometry on Karpas-299 cells
Description: as §1, §2

binding [1]: binds
binding [2]: binds
B1: aTriFlex_103 (protein)
chain 1: SYVLTQPPSVSVAPGQTARITCGGNNIGSKTVHWYQQKPGQAPVLVVYDDSDRPSGIPERFSGSNSGNTATLTISRVEAGDEADYYCQVGTDWSDHLQVFGGGTKLTVLGGSGGSGGSGGSGGSGGSGGSEVQLVQSGAEVKKPGESLKISCKGSGYSFTSNWIGWVRQMPGKGLEWMGMIWPGDSDTMYSPSFQGQVTISADESINTAYLQWSSLKASDTAMYYCARRETTTVGRYYYAMDYWGQGTLVTVSSGGSGGSGGSSYVLTQPSSVSVAPGQTATISCGGHNIGSKNVHWYQQRPGQSPVLVIYQDNKRPSGIPERFSGSNSGNTATLTISGTQAMDEADYYCQVWDNYSVLFGGGTKLTVLGGSGGSGGSSYVLTQPSSVSVAPGQTATISCGGHNIGSKNVHWYQQRPGQSPVLVIYQDNKRPSGIPERFSGSNSGNTATLTISGTQAMDEADYYCQVWDNYSVLFGGGTKLTVLGGSGGSGGSQVQLQQSGAELARPGASVKMSCKASGYTFTTYTIHWVRQRPGHDLEWIGYINPSSGYSDYNQNFKGKTTLTADKSSNTAYMQLNSLTSEDSAVYYCARRADYGNYEYTWFAYWGQGTTVTVSSGGSGGSGGSGGSGGSGGSDIVMTQSPKFMSTSVGDRVTVTCKASQNVGTNVAWFQQKPGQSPKVLIYSASYRYSGVPDRFTGSGSGTDFTLTISNVQSEDLAEYFCQQYHTYPLTFGGGTKLEINAAAGSHHHHHH
chain 2: QVQLVQSGAEVKKPGESLKVSCKASGYTFTSYYMHWVRQAPGQGLEWMGIINPSGGSTSYAQKFQGRVTMTRDTSTSTVYMELSSLRSEDTAVYYCARGSAYYYDFADYWGQGTLVTVSSGGSGGSGGSQVQLVQSGAEVKKPGESLKVSCKASGYTFTSYYMHWVRQAPGQGLEWMGIINPSGGSTSYAQKFQGRVTMTRDTSTSTVYMELSSLRSEDTAVYYCARGSAYYYDFADYWGQGTLVTVSSAAAGSDYKDDDDK
